{"source": "paper PMC7819943", "about": "“Rice protein-binding microarrays: a tool to detect cis-acting elements near promoter regions in rice”", "note": "The list shows a part of the results.", "data": [{"biological_target": "T1, OsSMF1 (Oryza sativa, UniProt Q6ZLB0 1-436)", "T1 sequence": "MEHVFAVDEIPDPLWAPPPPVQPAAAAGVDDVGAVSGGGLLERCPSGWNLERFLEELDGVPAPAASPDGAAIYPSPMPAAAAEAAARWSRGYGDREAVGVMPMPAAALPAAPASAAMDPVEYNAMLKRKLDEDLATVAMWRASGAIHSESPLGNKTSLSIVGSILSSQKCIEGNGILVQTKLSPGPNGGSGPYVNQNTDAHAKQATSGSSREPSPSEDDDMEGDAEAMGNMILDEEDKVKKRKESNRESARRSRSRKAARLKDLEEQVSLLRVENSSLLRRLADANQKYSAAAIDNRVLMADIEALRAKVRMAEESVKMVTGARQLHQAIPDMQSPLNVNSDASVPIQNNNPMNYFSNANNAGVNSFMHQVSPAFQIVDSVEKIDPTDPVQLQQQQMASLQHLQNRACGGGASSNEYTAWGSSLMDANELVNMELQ", "test": "protein-binding microarray (RPBM); PBS, 2% BSA, 51.3 ng/ul salmon testes DNA, 50 uM zinc acetate, 200 nM TF, 25 C, 1 h; high values mean tight binding", "details": "protein: recombinant; tags: N-terminal polyhistidine and DsRed monomer fusion (pET32a); chain copies: 2; label: CyDye5-dUTP incorporated in the synthesized complementary strand; 3' TTTTT single-stranded linker to array surface; dsDNA, one strand shown", "procedure,_shortened": "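Binding signal is defined as the fluorescence intensity of each feature in arbitrary units, read on an Axon 4000B scanner. Transcription factors with N-terminal polyhistidine and DsRed fusions came from E. coli BL21-CodonPlus and were purified on Ni–NTA. They were incubated at 200 nM for 1 h at 25 °C on a custom Agilent array that had been made double-stranded with Cy5-dUTP, with 50 µM zinc acetate present, and the array was washed.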", "values": [{"sequence": "AGTCTCCCAATCCCAACTGATTGTTCAGATAGGTCAGTTACGGAGTCACCTAGTGCAG", "binding signal": "3220 fluorescence intensity (a.u.)"}, {"sequence": "TGCATGATACGCCATCATACACTTGTAAAGTAGTGTACACCGGAGTCACCTAGTGCAG", "binding signal": "3280 fluorescence intensity (a.u.)"}, {"sequence": "CTGCGGCAGCCAACGCAGCATCCACCGTGTCCCCATCGCACGGAGTCACCTAGTGCAG", "binding signal": "6380 fluorescence intensity (a.u.)"}, {"sequence": "CATGCCATTTTCAGAGATTGATTAATCTGTTGTTTATGTCCGGAGTCACCTAGTGCAG", "binding signal": "3440 fluorescence intensity (a.u.)"}, {"sequence": "TGTGCTAACTGTTAGTGGTGACTGGTGACAAGTACATCACCGGAGTCACCTAGTGCAG", "binding signal": "3360 fluorescence intensity (a.u.)"}, {"sequence": "TTGTCGTCTTGCGATTACGGCTCCACGTGAGCGCGTGTGCCGGAGTCACCTAGTGCAG", "binding signal": "6900 fluorescence intensity (a.u.)"}, {"sequence": "AATTTGCACGTAGTGACTACGTTGATTCGTGGCCGTAGATCGGAGTCACCTAGTGCAG", "binding signal": "4650 fluorescence intensity (a.u.)"}, {"sequence": "CTCGCTGCCGCCGCCGTCGCTCGCCGTCACGTCGCCGTACCGGAGTCACCTAGTGCAG", "binding signal": "3480 fluorescence intensity (a.u.)"}, {"sequence": "GGCATCGACAATGACGGCGATGCGGTGCATATAGTGTTGTCGGAGTCACCTAGTGCAG", "binding signal": "3630 fluorescence intensity (a.u.)"}, {"sequence": "GGAGTATCCATGCCAGCTAAGCGAGTTGTACAAGGCAAGCCGGAGTCACCTAGTGCAG", "binding signal": "5690 fluorescence intensity (a.u.)"}, {"sequence": "AAGACCAGTCTTGCTCAAAATTGACAACTCATGGAAATGGCGGAGTCACCTAGTGCAG", "binding signal": "3150 fluorescence intensity (a.u.)"}, {"sequence": "ACATAATCCAACCTTACCTACGTGTTCATGACTCCAACACCGGAGTCACCTAGTGCAG", "binding signal": "9480 fluorescence intensity (a.u.)"}, {"sequence": "TCAAAATGATCTCTACACATCATATTCTGCTTGGTATTAGCGGAGTCACCTAGTGCAG", "binding signal": "3320 fluorescence intensity (a.u.)"}, {"sequence": "CAGCCTACATACGGGGTCCACGTGGGCCCCACCATATTTACGGAGTCACCTAGTGCAG", "binding signal": "8140 fluorescence intensity (a.u.)"}, {"sequence": "CCGCCGCAACGCCAAGAGCCAAACCGCCTCCTCCTTCCCACGGAGTCACCTAGTGCAG", "binding signal": "7590 fluorescence intensity (a.u.)"}, {"sequence": "AAGCCATTGTGGTCATATTAGGCTATTCGTGCTTCTGATGCGGAGTCACCTAGTGCAG", "binding signal": "3240 fluorescence intensity (a.u.)"}, {"sequence": "AACTGGAGTTGGCACAGGATGTGGCTCAACTAGTGGTGGCCGGAGTCACCTAGTGCAG", "binding signal": "3580 fluorescence intensity (a.u.)"}, {"sequence": "TACTTTGTACACGTGGTATGCCACCTGTGATTGAAAACAACGGAGTCACCTAGTGCAG", "binding signal": "10000 fluorescence intensity (a.u.)"}, {"sequence": "AACCTCGCCATCTTTCTCTGACATGTCGCTCACCGCTGTGCGGAGTCACCTAGTGCAG", "binding signal": "5460 fluorescence intensity (a.u.)"}, {"sequence": "TGTTGCTGCTGAATGCTGCTGACTCCGCACCAACTCCGCGCGGAGTCACCTAGTGCAG", "binding signal": "12600 fluorescence intensity (a.u.)"}, {"sequence": "GATCAGCCGCTGAGCTCATCATCGCTCGAGATCACGGCCTCGGAGTCACCTAGTGCAG", "binding signal": "3870 fluorescence intensity (a.u.)"}, {"sequence": "GGGTGGCTAACCAGTAACCACGTGTTTACCATGAAACGCCCGGAGTCACCTAGTGCAG", "binding signal": "3160 fluorescence intensity (a.u.)"}, {"sequence": "TGTGTTGTTGTCACACTGTTGCGTGTGTCAGATGCAGGAACGGAGTCACCTAGTGCAG", "binding signal": "6170 fluorescence intensity (a.u.)"}]}]}
